The results in this text go back to paper doi:10.1101/2024.03.29.587195 (bioRxiv, 2024).

Results are given in words; binding and its absence hold for the method and conditions named. Binding seen in cells or lysates may run through a third protein. Some results given as binding are weak or reduced against the parent protein; the word gives no strength. Tags and fused reporters may be left off the sequences shown.

Experiment [1] deals with T1, DopTAP (carboxyl-terminally epitope-tagged deamidase of Pup) (Mycobacterium tuberculosis) (UniProt P9WNU9).
T1 sequence: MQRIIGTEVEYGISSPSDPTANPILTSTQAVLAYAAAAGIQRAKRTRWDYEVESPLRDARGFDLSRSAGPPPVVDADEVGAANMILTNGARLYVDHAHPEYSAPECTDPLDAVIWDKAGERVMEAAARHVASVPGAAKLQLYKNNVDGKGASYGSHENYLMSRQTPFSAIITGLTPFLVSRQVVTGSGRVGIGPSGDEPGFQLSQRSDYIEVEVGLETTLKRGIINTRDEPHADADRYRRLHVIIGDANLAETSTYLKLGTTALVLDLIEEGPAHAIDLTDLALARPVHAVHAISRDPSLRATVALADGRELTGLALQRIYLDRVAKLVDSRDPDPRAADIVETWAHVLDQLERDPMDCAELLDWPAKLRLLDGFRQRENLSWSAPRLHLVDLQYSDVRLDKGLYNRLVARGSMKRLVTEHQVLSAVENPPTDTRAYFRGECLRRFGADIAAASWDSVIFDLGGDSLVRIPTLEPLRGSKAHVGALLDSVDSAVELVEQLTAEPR
As to the kind of experiment: co-IP.

The target of experiment [2] is T2, PafATAP (carboxyl-terminally epitope-tagged proteasome accessory factor A) (Mycobacterium tuberculosis) (UniProt P9WNU7).
T2 sequence: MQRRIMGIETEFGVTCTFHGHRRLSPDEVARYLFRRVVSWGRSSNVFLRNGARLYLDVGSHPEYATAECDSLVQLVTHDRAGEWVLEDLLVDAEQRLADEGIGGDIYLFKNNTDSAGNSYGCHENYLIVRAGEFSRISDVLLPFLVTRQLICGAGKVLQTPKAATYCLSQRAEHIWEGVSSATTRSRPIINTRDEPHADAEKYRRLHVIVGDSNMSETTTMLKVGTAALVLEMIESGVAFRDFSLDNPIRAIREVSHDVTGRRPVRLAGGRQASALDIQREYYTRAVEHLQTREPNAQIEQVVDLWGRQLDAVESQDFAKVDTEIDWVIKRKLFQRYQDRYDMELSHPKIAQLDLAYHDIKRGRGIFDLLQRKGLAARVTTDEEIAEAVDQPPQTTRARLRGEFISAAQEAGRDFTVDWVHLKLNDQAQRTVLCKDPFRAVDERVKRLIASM
As to the kind of experiment: co-IP.

B1: CoaXMtb, untagged, recombinant (cryo-EM sample) (natural protein)
chain: MLLAIDVRNTHTVVGLLSGMKEHAKVVQQWRIRTESEVTADELALTIDGLIGEDSERLTGTAALSTVPSVLHEVRIMLDQYWPSVPHVLIEPGVRTGIPLLVDNPKEVGADRIVNCLAAYDRFRKAAIVVDFGSSICVDVVSAKGEFLGGAIAPGVQVSSDAAAARSAALRRVELARPRSVVGKNTVECMQAGAVFGFAGLVDGLVGRIREDVSGFSVDHDVAIVATGHTAPLLLPELHTVDHYDQHLTLQGLRLVFERNLEVQRGRLKTAR
For the molecule B1, the values for the binding result in experiment [1] and in experiment [2] were “binds” and “no binding”, respectively.
